These are yes or no findings as the source states them, for the method shown. Binding seen in cells or lysates may run through a third protein. Binding can be weak; no strength is given.
Experiments:
[1] = target: Butyrophilin Subfamily 3 Member A3 (BTN3A3), endogenous (human (endogenous in 3AO and NIH:OVCAR-3)) (UniProt O00478); assay: co-IP; endogenous proteins in 3AO and NIH:OVCAR-3 cells; Pierce IP Lysis Buffer, primary antibody or control IgG, Protein A/G PLUS-Agarose beads, 4°C, Western blot
[2] = target: 3 × Flag-BTN3A3 (Butyrophilin Subfamily 3 Member A3), expressed in 293T cells (UniProt O00478); assay: co-IP; exogenous: 3 × Flag-BTN3A3 and 3 × HA-FGF2 plasmids co-transfected in 293T cells; Pierce IP Lysis Buffer, Protein A/G PLUS-Agarose beads, 4°C, Western blot

By UniProt entry, the sequences of proteins in these tests, tags left out. Where a name states a change or a piece, a line headed by the entry shows the natural chain unless it says otherwise. Residues count along the entry.
UniProt O00478, residues 30-584: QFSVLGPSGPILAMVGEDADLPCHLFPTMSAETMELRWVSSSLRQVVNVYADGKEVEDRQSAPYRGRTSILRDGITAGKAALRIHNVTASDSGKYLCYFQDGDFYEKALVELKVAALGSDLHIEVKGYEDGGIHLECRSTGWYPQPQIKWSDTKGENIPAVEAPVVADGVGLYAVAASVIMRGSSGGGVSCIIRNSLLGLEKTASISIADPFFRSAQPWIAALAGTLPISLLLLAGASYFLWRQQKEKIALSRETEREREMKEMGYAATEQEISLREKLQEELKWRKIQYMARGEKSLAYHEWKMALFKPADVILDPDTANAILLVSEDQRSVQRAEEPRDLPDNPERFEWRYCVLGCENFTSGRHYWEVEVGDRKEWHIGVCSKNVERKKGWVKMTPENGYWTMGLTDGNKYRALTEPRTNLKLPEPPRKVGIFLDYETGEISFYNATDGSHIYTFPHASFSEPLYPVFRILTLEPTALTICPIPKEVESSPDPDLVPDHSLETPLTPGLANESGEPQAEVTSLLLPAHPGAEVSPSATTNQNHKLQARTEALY
UniProt P09038: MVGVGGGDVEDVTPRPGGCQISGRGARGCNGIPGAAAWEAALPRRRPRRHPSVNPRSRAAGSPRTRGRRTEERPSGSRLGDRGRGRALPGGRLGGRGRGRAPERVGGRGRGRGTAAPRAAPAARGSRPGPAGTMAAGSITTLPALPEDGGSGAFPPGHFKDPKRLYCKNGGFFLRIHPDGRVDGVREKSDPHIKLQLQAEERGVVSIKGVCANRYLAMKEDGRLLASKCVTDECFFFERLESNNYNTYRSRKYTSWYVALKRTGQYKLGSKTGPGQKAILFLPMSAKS

| Substance | binding [1] | binding [2] |
| --- | --- | --- |
| Fibroblast Growth Factor 2 (FGF2), endogenous (from UniProt P09038) | binds |  |
| 3 × HA-FGF2 (Fibroblast Growth Factor 2) (from UniProt P09038) |  | binds |

Source: article PMC9428752
